The text below walks through data of PMC7969954, “Pol α-primase dependent nuclear localization of the mammalian CST complex” (Communications Biology, 2021).

The chains behind the UniProt entries cited, without tags or fusion partners.
UniProt P04406: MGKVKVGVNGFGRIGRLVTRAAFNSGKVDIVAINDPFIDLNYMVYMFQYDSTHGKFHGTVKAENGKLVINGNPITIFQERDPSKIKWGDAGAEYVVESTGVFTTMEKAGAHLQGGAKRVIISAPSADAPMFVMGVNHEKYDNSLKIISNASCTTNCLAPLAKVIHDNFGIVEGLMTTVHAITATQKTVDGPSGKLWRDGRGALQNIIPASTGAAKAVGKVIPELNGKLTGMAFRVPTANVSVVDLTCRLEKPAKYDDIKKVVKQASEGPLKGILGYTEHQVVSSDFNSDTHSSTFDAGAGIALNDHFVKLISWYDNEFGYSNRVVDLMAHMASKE
UniProt P09884: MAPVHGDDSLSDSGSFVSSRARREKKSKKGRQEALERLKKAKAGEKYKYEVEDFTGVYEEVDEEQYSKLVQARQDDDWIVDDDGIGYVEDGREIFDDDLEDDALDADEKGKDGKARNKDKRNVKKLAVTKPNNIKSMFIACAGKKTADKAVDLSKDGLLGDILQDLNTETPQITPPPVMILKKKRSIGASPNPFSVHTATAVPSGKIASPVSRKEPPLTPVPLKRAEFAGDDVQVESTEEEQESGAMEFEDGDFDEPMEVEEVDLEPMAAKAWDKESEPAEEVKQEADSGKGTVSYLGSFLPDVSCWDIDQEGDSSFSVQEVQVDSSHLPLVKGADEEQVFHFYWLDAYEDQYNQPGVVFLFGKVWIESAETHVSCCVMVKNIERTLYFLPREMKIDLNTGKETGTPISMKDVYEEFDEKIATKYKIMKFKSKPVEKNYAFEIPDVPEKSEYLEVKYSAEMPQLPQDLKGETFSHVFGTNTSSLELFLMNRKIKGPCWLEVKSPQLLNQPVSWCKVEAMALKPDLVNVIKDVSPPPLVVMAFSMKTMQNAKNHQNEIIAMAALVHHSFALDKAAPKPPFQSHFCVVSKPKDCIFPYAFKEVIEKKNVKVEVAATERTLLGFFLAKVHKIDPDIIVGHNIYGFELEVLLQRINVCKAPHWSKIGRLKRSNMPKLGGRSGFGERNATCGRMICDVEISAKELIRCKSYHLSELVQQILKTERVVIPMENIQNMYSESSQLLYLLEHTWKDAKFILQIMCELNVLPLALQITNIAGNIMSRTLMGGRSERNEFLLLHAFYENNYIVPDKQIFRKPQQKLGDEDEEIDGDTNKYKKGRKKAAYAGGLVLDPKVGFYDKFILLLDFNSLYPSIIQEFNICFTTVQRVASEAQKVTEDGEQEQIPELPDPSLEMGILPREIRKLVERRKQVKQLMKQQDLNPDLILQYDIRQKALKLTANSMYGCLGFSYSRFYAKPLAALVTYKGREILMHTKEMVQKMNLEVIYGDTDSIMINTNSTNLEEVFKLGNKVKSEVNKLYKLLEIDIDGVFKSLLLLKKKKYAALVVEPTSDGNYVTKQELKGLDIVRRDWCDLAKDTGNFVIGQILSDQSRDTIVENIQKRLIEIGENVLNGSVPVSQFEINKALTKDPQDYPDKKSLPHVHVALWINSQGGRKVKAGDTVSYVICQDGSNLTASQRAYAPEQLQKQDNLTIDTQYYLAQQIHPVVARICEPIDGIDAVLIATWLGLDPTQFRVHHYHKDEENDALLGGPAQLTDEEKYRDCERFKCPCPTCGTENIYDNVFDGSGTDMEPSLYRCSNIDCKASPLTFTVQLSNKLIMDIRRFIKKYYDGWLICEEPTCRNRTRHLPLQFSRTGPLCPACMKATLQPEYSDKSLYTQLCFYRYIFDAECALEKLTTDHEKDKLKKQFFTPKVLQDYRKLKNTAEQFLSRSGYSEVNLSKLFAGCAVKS

Test [1] addresses T1, mCherry-CTC1 (CRISPR Cas9 knock-in at the endogenous CTC1 gene) (human (endogenous in HEK293T)) (UniProt Q2NKJ3).
T1 sequence: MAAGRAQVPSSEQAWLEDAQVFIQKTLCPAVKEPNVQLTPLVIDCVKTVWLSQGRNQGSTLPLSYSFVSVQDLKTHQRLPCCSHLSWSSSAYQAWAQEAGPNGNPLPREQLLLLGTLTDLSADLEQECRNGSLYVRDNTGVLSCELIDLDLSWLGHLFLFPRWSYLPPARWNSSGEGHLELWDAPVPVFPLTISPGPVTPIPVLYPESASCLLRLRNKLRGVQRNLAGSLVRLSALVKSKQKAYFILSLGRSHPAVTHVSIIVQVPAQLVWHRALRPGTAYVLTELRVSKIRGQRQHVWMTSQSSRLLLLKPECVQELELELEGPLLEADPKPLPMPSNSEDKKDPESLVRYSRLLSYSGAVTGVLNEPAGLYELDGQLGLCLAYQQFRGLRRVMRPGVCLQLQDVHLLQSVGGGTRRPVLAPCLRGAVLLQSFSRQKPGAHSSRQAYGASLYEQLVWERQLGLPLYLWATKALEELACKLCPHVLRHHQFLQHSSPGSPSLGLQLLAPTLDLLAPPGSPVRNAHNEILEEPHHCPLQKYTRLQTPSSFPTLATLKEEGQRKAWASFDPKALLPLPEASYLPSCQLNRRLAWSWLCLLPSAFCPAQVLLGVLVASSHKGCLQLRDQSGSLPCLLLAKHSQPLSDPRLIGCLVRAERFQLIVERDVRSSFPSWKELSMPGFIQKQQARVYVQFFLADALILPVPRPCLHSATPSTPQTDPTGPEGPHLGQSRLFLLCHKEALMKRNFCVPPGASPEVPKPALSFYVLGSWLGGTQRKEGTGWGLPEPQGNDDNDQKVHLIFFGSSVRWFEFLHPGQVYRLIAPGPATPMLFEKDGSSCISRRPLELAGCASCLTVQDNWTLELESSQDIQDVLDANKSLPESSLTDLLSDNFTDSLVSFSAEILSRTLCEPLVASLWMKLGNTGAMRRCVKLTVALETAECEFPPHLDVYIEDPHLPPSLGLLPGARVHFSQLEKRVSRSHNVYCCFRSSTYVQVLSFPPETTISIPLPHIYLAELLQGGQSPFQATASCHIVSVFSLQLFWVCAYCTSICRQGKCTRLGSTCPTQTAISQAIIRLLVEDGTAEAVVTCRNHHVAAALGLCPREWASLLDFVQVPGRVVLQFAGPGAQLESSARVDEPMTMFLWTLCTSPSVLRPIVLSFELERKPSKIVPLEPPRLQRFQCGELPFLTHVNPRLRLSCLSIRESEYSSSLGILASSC
Nature of the test: co-IP; magnetic RFP-Trap (mCherry-Trap) beads on lysates of 8 x 10^6 HEK293T cells expressing mCherry-CTC1; IPs blotted for endogenous proteins; mock co-IPs with WT HEK293T cells.

Test [2] has as its target T1, mCherry-CTC1 (CRISPR Cas9 knock-in at the endogenous CTC1 gene) (human (endogenous in HEK293T)). Nature of the test: co-IP; RFP-beads incubated with nuclear and cytoplasmic extracts of fractionated HEK293T cells; blotted for PolA1.
Test [3] concerns the target T2, mCherry-CTC1 K240A (human) (UniProt Q2NKJ3).
T2 sequence: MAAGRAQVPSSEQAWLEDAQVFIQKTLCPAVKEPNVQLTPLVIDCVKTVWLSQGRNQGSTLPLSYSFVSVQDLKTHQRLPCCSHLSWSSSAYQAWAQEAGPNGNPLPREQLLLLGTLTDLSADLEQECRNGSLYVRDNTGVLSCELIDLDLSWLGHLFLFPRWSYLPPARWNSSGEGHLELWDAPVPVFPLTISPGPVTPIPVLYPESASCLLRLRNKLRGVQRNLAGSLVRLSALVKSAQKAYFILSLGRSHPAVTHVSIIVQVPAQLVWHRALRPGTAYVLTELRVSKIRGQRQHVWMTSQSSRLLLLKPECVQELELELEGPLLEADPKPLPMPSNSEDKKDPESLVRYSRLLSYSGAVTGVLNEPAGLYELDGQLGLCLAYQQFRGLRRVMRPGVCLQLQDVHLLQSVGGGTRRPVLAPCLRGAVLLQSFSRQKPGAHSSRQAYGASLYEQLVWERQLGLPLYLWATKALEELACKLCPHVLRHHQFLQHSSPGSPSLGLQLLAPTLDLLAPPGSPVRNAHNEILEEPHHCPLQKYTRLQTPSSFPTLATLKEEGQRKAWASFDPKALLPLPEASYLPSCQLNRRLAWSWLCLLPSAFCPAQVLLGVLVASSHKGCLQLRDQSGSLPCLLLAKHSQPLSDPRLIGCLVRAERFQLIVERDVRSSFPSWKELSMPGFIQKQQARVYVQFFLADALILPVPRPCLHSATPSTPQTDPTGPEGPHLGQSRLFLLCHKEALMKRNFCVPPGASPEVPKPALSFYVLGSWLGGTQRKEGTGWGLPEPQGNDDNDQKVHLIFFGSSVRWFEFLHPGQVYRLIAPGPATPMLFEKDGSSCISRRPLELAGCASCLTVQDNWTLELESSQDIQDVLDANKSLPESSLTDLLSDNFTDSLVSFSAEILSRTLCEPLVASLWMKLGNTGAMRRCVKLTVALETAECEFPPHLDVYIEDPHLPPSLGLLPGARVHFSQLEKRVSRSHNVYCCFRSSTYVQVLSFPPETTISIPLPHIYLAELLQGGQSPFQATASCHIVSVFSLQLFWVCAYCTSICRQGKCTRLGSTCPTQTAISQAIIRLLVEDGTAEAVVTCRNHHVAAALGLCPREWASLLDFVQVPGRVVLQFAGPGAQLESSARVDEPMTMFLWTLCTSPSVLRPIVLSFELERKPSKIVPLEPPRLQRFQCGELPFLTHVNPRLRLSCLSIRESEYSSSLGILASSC
Nature of the test: co-IP; magnetic RFP-Trap (mCherry-Trap) beads on lysates of 8 x 10^6 HEK293T cells expressing mCherry-CTC1; IPs blotted for endogenous proteins; mock co-IPs with WT HEK293T cells.

For test [4], the target named is T3, mCherry-CTC1 K242A (human) (UniProt Q2NKJ3).
T3 sequence: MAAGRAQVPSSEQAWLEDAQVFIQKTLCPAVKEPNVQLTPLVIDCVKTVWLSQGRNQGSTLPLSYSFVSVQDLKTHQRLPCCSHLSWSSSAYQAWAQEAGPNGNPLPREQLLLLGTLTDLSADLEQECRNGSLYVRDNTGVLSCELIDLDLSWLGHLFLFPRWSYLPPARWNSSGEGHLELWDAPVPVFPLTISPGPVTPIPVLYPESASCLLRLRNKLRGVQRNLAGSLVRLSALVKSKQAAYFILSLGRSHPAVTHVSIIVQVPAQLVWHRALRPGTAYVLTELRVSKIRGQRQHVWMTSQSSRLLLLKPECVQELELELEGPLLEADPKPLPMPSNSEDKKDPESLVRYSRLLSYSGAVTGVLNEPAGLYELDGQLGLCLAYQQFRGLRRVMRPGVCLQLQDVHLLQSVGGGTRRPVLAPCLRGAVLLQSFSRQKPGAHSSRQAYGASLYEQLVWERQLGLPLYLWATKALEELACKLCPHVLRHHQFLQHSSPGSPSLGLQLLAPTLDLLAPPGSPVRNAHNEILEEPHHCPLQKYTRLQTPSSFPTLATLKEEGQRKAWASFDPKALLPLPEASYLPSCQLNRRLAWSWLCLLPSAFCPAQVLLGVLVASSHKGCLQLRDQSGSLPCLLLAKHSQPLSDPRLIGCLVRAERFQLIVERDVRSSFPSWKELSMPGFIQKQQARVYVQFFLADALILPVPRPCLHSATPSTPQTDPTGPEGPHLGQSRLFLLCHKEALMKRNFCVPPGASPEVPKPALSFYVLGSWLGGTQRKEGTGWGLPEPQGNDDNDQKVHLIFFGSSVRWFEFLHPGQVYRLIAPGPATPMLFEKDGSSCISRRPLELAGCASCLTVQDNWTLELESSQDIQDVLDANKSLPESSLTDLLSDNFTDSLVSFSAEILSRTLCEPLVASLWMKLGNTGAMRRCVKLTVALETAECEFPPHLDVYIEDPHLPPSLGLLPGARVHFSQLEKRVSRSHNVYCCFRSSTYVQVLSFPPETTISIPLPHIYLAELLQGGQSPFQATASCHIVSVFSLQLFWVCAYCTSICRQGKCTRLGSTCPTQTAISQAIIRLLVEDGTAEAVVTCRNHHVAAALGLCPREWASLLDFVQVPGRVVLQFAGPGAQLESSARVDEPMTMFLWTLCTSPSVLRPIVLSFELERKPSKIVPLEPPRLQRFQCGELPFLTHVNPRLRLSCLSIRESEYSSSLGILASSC
The description is as above.

Test [5] concerns the target T4, mCherry-CTC1 wild type (plasmid construct) (human) (UniProt Q2NKJ3).
T4 sequence: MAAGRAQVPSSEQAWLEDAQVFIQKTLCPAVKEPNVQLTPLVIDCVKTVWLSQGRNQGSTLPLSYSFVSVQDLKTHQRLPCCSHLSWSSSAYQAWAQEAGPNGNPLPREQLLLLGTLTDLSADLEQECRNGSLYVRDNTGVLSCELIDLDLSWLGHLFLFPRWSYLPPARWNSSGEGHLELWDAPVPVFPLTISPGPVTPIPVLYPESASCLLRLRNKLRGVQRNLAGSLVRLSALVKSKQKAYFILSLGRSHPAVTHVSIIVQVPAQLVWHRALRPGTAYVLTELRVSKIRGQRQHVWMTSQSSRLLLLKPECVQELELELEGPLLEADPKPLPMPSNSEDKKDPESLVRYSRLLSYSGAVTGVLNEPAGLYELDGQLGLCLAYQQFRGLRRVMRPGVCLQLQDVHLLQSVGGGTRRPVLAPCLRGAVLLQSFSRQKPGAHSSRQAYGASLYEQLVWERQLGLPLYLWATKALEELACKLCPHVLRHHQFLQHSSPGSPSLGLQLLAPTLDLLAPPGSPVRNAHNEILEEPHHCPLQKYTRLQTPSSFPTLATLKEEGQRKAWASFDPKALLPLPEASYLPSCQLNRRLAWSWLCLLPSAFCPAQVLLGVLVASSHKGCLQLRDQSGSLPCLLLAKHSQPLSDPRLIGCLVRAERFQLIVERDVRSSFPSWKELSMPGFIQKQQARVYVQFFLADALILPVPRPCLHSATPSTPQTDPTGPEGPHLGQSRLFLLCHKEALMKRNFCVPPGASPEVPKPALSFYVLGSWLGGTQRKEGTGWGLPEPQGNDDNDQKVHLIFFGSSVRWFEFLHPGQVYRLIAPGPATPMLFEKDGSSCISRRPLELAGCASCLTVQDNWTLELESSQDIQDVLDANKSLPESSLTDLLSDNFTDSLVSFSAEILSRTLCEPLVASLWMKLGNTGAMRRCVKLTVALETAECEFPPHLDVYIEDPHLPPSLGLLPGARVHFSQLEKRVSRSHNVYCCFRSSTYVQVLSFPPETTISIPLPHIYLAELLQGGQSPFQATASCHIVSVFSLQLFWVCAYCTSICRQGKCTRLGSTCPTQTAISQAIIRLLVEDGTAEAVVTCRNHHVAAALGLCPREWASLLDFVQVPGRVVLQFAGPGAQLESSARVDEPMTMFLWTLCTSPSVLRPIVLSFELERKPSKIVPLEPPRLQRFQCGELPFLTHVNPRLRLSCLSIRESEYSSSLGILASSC
The test is described as above.

The target in test [6] is T5, full length STN1 (recombinant) (human) (UniProt Q9H668).
T5 sequence: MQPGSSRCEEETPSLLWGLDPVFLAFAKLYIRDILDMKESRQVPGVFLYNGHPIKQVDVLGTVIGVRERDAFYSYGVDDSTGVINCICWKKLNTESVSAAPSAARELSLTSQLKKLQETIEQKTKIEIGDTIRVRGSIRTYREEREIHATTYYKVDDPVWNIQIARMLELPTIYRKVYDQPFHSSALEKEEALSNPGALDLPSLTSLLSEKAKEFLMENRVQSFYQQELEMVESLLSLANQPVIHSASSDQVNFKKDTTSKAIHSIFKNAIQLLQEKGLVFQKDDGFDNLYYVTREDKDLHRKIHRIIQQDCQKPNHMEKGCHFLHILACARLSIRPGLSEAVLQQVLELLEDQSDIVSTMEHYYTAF
Nature of the test: co-purification; STN1 and TEN1 E. coli cells lysed together by sonication and purified as a complex over Ni-NTA, amylose, HS and HQ columns.

No constants are given. Whether binding was seen depends on the method and setting. For some assays here: In cells and extracts the contact can be indirect. Some entries that bind do so weakly or less than the wild type.

As to “GAPDH, endogenous (from UniProt P04406 1-335)”, the binding entry in test [1] is given as “no binding”.
For the molecule “PolA1 (catalytic subunit of DNA polymerase alpha primase), endogenous (from UniProt P09884 1-1462)”, the binding entry in test [2], in test [1], in test [3], in test [4] and in test [5] was “binds” throughout.

B1: STN1, endogenous (protein, UniProt Q9H668 1-368)
chain: MQPGSSRCEEETPSLLWGLDPVFLAFAKLYIRDILDMKESRQVPGVFLYNGHPIKQVDVLGTVIGVRERDAFYSYGVDDSTGVINCICWKKLNTESVSAAPSAARELSLTSQLKKLQETIEQKTKIEIGDTIRVRGSIRTYREEREIHATTYYKVDDPVWNIQIARMLELPTIYRKVYDQPFHSSALEKEEALSNPGALDLPSLTSLLSEKAKEFLMENRVQSFYQQELEMVESLLSLANQPVIHSASSDQVNFKKDTTSKAIHSIFKNAIQLLQEKGLVFQKDDGFDNLYYVTREDKDLHRKIHRIIQQDCQKPNHMEKGCHFLHILACARLSIRPGLSEAVLQQVLELLEDQSDIVSTMEHYYTAF
For B1, the binding result in test [1] is on record as “binds”.

B2: full length TEN1 (recombinant) (protein, UniProt Q86WV5 1-123)
chain: MMLPKPGTYYLPWEVSAGQVPDGSTLRTFGRLCLYDMIQSRVTLMAQHGSDQHQVLVCTKLVEPFHAQVGSLYIVLGELQHQQDRGSVVKARVLTCVEGMNLPLLEQAIREQRLYKQERGGSQ
For the molecule B2, in test [6], the binding entry is “binds”.
